# Assay results taken from PubChem BioAssay AID248 (DTP/NCI, 2004).
# The list does not hold the whole screen: it gathers tests that were run many times, whatever their T/C, doses with no T/C, and many T/C values between a quarter and a half above the control. Further doses and runs are listed elsewhere. T/C gives the treated animals as a percentage of the vehicle group. Some entries give survivors of the animals treated and no T/C: the source files T/C as zero there, which appears to mark a toxic dose or a test without result, not a measured value. Some survivor counts are full or nearly so, which does not show that the dose was tolerated: the source hardly ever lists a survival T/C far under the control, and the zero likely stands for such cases as well. Survivors were counted at the toxicity check, usually on the fifth day, unless a day is given; later deaths do not show. Schedules are NCI's codes, read here as Q, the interval in days (D) or hours (H), X, the number of doses. Some molecules as drawn cover several salts, stereoisomers or complexes of the source; a dose is that of the sample tested. Where survival is the endpoint, the PubChem record calls one and a half times the control and up active, and a quarter to a half above the control has no call in these data; cut-offs in other NCI protocols can differ. Some T/C values carry the count of animals alive at the toxicity check (mostly the fifth day); where none is given, no animal had died by that day. Some entries were tested several times; the results are listed from low to high. Counts like (3×) give the number of equal values in this list.
# Tested on: L1210 leukemia ip in BDF1 mice, survival T/C
# Experiment: NCI In Vivo Anticancer Drug Screen. Data for tumor model L1210 Leukemia (intraperitoneal) in B6D2F1 (BDF1) mice
# Conditions: higher T/C = longer survival
# [1] = T/C endpoint: mean survival time, dose: 100.0 mg/kg/injection, schedule: Q01DX009 (ip), vehicle: saline with Tween-80
# [2] = T/C endpoint: mean survival time, dose: 400.0 mg/kg/injection, schedule: Q01DX001 (ip), vehicle: saline
structure (smiles),measurement,setting,value
ClC(c1ccccc1)C(Cl)c1ccccc1 (stereo unspecified),survivor count,"T/C endpoint: mean survival time, dose: 50.0 mg/kg/injection, schedule: Q01DX009 (ip), vehicle: saline with Tween-80",3 of 3
same,survivor count,[1],3 of 3
same,survivor count,"T/C endpoint: mean survival time, dose: 200.0 mg/kg/injection, schedule: Q01DX009 (ip), vehicle: saline with Tween-80",1 of 3
CC1=NC(C(=O)O)C(=O)O1 (stereo unspecified),survivor count,"T/C endpoint: mean survival time, dose: 400.0 mg/kg/injection, schedule: Q01DX009 (ip), vehicle: saline",1 of 6
O=[N+]([O-])c1ccc(N/N=C\c2ccc(OCc3ccccc3)cc2)c([N+](=O)[O-])c1,survivor count,"T/C endpoint: mean survival time, dose: 200.0 mg/kg/injection, schedule: Q01DX001 (ip), vehicle: other",6 of 6
same,survivor count,"T/C endpoint: mean survival time, dose: 400.0 mg/kg/injection, schedule: Q01DX001 (ip), vehicle: other",6 of 6
CCO/C=C1\SC(=S)N(c2cccc(C)c2)C1=O,survivor count,"T/C endpoint: mean survival time, dose: 400.0 mg/kg/injection, schedule: Q01DX009 (ip), vehicle: Klucel (hydroxypropylcellulose) (HPC)",5 of 6
COc1cc2c[n+](C)c3c4cc5c(cc4ccc3c2cc1OC)OCO5,survivor count,"T/C endpoint: mean survival time, dose: 1.0 mg/kg/injection, schedule: Q01DX009 (ip), vehicle: saline",10 of 10
same,T/C,"T/C endpoint: mean survival time, dose: 1.0 mg/kg/injection, schedule: Q01DX009 (ip), vehicle: water",134 % of control
same,T/C,"T/C endpoint: mean survival time, dose: 2.0 mg/kg/injection, schedule: Q01DX009 (ip), vehicle: saline, evaluated on day 30","102, 110, 119 % of control"
same,T/C,"T/C endpoint: mean survival time, dose: 2.0 mg/kg/injection, schedule: Q01DX009 (ip), vehicle: saline, evaluated on day 60",133 % of control
same,survivor count,"T/C endpoint: mean survival time, dose: 2.0 mg/kg/injection, schedule: Q01DX009 (ip), vehicle: saline",10 of 10
same,T/C,"T/C endpoint: mean survival time, dose: 2.0 mg/kg/injection, schedule: Q01DX009 (ip), vehicle: water",130 % of control
same,T/C,"T/C endpoint: mean survival time, dose: 4.0 mg/kg/injection, schedule: Q01DX009 (ip), vehicle: saline, evaluated on day 30","111, 112 [5 of 6 alive], 120, 122 % of control"
same,T/C,"T/C endpoint: mean survival time, dose: 4.0 mg/kg/injection, schedule: Q01DX009 (ip), vehicle: saline, evaluated on day 60",141 % of control
same,survivor count,"T/C endpoint: mean survival time, dose: 4.0 mg/kg/injection, schedule: Q01DX009 (ip), vehicle: saline",10 of 10
same,T/C,"T/C endpoint: mean survival time, dose: 4.0 mg/kg/injection, schedule: Q01DX009 (ip), vehicle: water",131 % of control
same,T/C,"T/C endpoint: mean survival time, dose: 5.0 mg/kg/injection, schedule: Q01DX009 (ip), vehicle: saline",126 % of control
same,T/C,"T/C endpoint: mean survival time, dose: 8.0 mg/kg/injection, schedule: Q01DX009 (ip), vehicle: saline, evaluated on day 30","117 (2×), 118, 127 % of control"
same,T/C,"T/C endpoint: mean survival time, dose: 8.0 mg/kg/injection, schedule: Q01DX009 (ip), vehicle: saline, evaluated on day 60",126 % of control
same,survivor count,"T/C endpoint: mean survival time, dose: 8.0 mg/kg/injection, schedule: Q01DX009 (ip), vehicle: saline",10 of 10
same,T/C,"T/C endpoint: mean survival time, dose: 8.0 mg/kg/injection, schedule: Q01DX009 (ip), vehicle: water",134 % of control
same,T/C,"T/C endpoint: mean survival time, dose: 10.0 mg/kg/injection, schedule: Q04DX003 (ip), vehicle: saline",132 % of control
same,T/C,"T/C endpoint: mean survival time, dose: 16.0 mg/kg/injection, schedule: Q01DX009 (ip), vehicle: saline","109, 114, 119 % of control (2×)"
same,T/C,"T/C endpoint: mean survival time, dose: 20.0 mg/kg/injection, schedule: Q01DX009 (ip), vehicle: saline",141 % of control
same,T/C,"T/C endpoint: mean survival time, dose: 20.0 mg/kg/injection, schedule: Q04DX003 (ip), vehicle: saline",131 % of control [5 of 6 alive]
same,T/C,"T/C endpoint: mean survival time, dose: 32.0 mg/kg/injection, schedule: Q01DX009 (ip), vehicle: saline","121, 125, 127, 139 % of control"
same,T/C,"T/C endpoint: mean survival time, dose: 40.0 mg/kg/injection, schedule: Q04DX003 (ip), vehicle: saline",145 % of control
same,T/C,"T/C endpoint: mean survival time, dose: 64.0 mg/kg/injection, schedule: Q01DX009 (ip), vehicle: saline",127 % of control [5 of 6 alive]
same,survivor count,"T/C endpoint: median survival time, dose: 1.0 mg/kg/injection, schedule: Q03HX016 (ip), vehicle: saline",10 of 10
same,T/C,"T/C endpoint: median survival time, dose: 2.0 mg/kg/injection, schedule: Q03HX024 (ip), vehicle: saline",128 % of control
same,T/C,"T/C endpoint: median survival time, dose: 4.0 mg/kg/injection, schedule: Q03HX024 (ip), vehicle: saline",130 % of control
same,T/C,"T/C endpoint: median survival time, dose: 8.0 mg/kg/injection, schedule: Q01DX009 (ip), vehicle: saline",128 % of control
same,T/C,"T/C endpoint: median survival time, dose: 8.0 mg/kg/injection, schedule: Q03HX008 (ip), vehicle: saline",129 % of control [9 of 10 alive]
same,T/C,"T/C endpoint: median survival time, dose: 8.0 mg/kg/injection, schedule: Q03HX016 (ip), vehicle: saline",133 % of control
same,T/C,"T/C endpoint: median survival time, dose: 8.0 mg/kg/injection, schedule: Q03HX024 (ip), vehicle: saline",140 % of control
same,T/C,"T/C endpoint: median survival time, dose: 16.0 mg/kg/injection, schedule: Q01DX009 (ip), vehicle: saline",129 % of control
same,survivor count,"T/C endpoint: median survival time, dose: 16.0 mg/kg/injection, schedule: Q03HX016 (ip), vehicle: saline",4 of 10
same,survivor count,"T/C endpoint: median survival time, dose: 16.0 mg/kg/injection, schedule: Q03HX024 (ip), vehicle: saline",8 of 10
same,T/C,"T/C endpoint: median survival time, dose: 32.0 mg/kg/injection, schedule: Q01DX009 (ip), vehicle: saline",149 % of control
same,survivor count,"T/C endpoint: median survival time, dose: 32.0 mg/kg/injection, schedule: Q03HX008 (ip), vehicle: saline",1 of 10
same,survivor count,"T/C endpoint: median survival time, dose: 32.0 mg/kg/injection, schedule: Q03HX024 (ip), vehicle: saline",4 of 10
same,T/C,"T/C endpoint: median survival time, dose: 32.0 mg/kg/injection, schedule: Q08DX002 (ip), vehicle: saline",128 % of control
same,survivor count,"T/C endpoint: median survival time, dose: 64.0 mg/kg/injection, schedule: Q03HX008 (ip), vehicle: saline",0 of 10
same,T/C,"T/C endpoint: median survival time, dose: 64.0 mg/kg/injection, schedule: Q08DX002 (ip), vehicle: saline",130 % of control
same,survivor count,"T/C endpoint: median survival time, dose: 128.0 mg/kg/injection, schedule: Q01DX009 (ip), vehicle: saline",10 of 10
same,T/C,"T/C endpoint: median survival time, dose: 256.0 mg/kg/injection, schedule: Q01DX001 (ip), vehicle: saline",130 % of control
same,survivor count,"T/C endpoint: median survival time, dose: 256.0 mg/kg/injection, schedule: Q04DX003 (ip), vehicle: saline",10 of 10
same,survivor count,"T/C endpoint: median survival time, dose: 512.0 mg/kg/injection, schedule: Q01DX001 (ip), vehicle: saline",4 of 10
O=S1(=O)C2CCC(C2)C1Cl (stereo unspecified),survivor count,[1],2 of 6
CCOP(=O)(OCC)Oc1ccc(SC)cc1,survivor count,"T/C endpoint: mean survival time, dose: 20.0 mg/kg/injection, schedule: Q01DX001 (ip), vehicle: saline",0 of 6
same,survivor count,"T/C endpoint: mean survival time, dose: 40.0 mg/kg/injection, schedule: Q01DX001 (ip), vehicle: saline",0 of 6
same,survivor count,"T/C endpoint: mean survival time, dose: 80.0 mg/kg/injection, schedule: Q01DX001 (ip), vehicle: saline",0 of 6
CCCC[N+](CCCC)(CCCC)Cc1ccccc1,survivor count,"T/C endpoint: mean survival time, dose: 100.0 mg/kg/injection, schedule: Q04DX003 (ip), vehicle: saline",0 of 6
same,survivor count,"T/C endpoint: mean survival time, dose: 200.0 mg/kg/injection, schedule: Q04DX003 (ip), vehicle: saline",0 of 6
same,survivor count,"T/C endpoint: mean survival time, dose: 400.0 mg/kg/injection, schedule: Q04DX003 (ip), vehicle: saline",0 of 6
O=c1c2ccccc2sc2c1ccc1c2ccc2c(=O)c3ccccc3sc21,survivor count,"T/C endpoint: mean survival time, dose: 400.0 mg/kg/injection, schedule: Q04DX003 (ip), vehicle: saline with Tween-80",5 of 6
CC(C)(CO)CN1CCCC1,survivor count,[2],0 of 4
OCC(O)C(O)C(O)C(O)C(c1ccc(Cl)cc1)c1ccc(Cl)cc1 (stereo unspecified),survivor count,"T/C endpoint: mean survival time, dose: 200.0 mg/kg/injection, schedule: Q01DX001 (ip), vehicle: saline",0 of 4
same,survivor count,[2],0 of 4
O=C(C=C(C(F)(F)F)C(F)(F)F)c1ccc(Br)cc1,survivor count,"T/C endpoint: mean survival time, dose: 100.0 mg/kg/injection, schedule: Q04DX003 (ip), vehicle: other",1 of 6
COC(=N)c1ccc(O)cc1,survivor count,"T/C endpoint: mean survival time, dose: 400.0 mg/kg/injection, schedule: Q04DX002 (ip), vehicle: saline with Tween-80",2 of 3
NC(=O)c1c(N)n(C2OC(CO)C(O)C2O)c2ncnc(N)c12 (stereo unspecified),T/C,"T/C endpoint: mean survival time, dose: 60.0 mg/kg/injection, schedule: Q01DX005 (ip), vehicle: saline",144 % of control
same,T/C,"T/C endpoint: mean survival time, dose: 100.0 mg/kg/injection, schedule: Q01DX005 (ip), vehicle: saline",125 and 130 % of control [5 of 6 alive]
same,T/C,"T/C endpoint: mean survival time, dose: 120.0 mg/kg/injection, schedule: Q01DX005 (ip), vehicle: saline",130 % of control [5 of 6 alive]
same,survivor count,"T/C endpoint: mean survival time, dose: 200.0 mg/kg/injection, schedule: Q01DX005 (ip), vehicle: saline",3 of 6
